These are yes or no findings as the source states them, for the method shown. Binding calls can cover weak binding; strength is not graded here.

Amino acid sequences for entries named in this document (tags omitted). A change or cut given only in a name is not applied to a line headed by its entry.
UniProt P42575: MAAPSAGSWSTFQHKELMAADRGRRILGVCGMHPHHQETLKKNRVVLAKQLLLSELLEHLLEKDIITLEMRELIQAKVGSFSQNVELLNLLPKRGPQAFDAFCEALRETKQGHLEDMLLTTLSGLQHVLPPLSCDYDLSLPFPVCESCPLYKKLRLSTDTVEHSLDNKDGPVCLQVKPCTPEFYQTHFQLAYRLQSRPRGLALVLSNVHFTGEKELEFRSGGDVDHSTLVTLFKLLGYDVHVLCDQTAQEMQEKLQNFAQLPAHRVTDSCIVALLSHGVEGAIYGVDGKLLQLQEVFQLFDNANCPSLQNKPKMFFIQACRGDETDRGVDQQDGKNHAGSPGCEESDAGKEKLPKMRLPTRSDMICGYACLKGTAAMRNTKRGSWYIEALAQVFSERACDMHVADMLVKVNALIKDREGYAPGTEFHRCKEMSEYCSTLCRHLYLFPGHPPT

The assay addresses caspase-2 (UniProt P42575). As to the kind of experiment: competitive binding assay (PROMEGA-GLO 2).
Consider YDPAD (N-terminal R1 = CH3 (acetyl); C-terminal Asp aldehyde (CHO)) [pentapeptide of Table 1, SEQ ID NO:30 (R1 CH3; Y-D-P-A-D; R2 CHO)], for which the binding result is “binds”.

On to YKPVD (N-terminal R1 = benzyl; C-terminal Asp aldehyde (CHO)) [pentapeptide of Table 1, SEQ ID NO:25 (R1 benzyl; Y-K-P-V-D; R2 CHO)], for which the binding result was “binds”.

As to YKVVD (N-terminal R1 = CH3 (acetyl); C-terminal Asp aldehyde (CHO)) [pentapeptide of Table 1, SEQ ID NO:31 (R1 CH3; Y-K-V-V-D; R2 CHO)], the binding entry is recorded as “binds”.

Take FKPVD (N-terminal R1 = CH3 (acetyl); C-terminal Asp aldehyde (CHO)) [pentapeptide of Table 1, SEQ ID NO:23 (R1 CH3; F-K-P-V-D; R2 CHO)]: the binding result is on record as “binds”.

YDPVD (N-terminal R1 = CH3 (acetyl); C-terminal Asp aldehyde (CHO)) [pentapeptide of Table 1, SEQ ID NO:20 (R1 CH3; Y-D-P-V-D; R2 CHO)]: the binding result was “binds”.

YDPVD (N-terminal R1 = benzyl; C-terminal Asp aldehyde (CHO)) [pentapeptide of Table 1, SEQ ID NO:26 (R1 benzyl; Y-D-P-V-D; R2 CHO)]: the binding entry is given as “binds”.

Consider YSPVD (N-terminal R1 = CH3 (acetyl); C-terminal Asp aldehyde (CHO)) [pentapeptide of Table 1, SEQ ID NO:21 (R1 CH3; Y-S-P-V-D; R2 CHO)], for which the binding entry is on record as “binds”.

In the case of YKPYD (N-terminal R1 = CH3 (acetyl); C-terminal Asp aldehyde (CHO)) [pentapeptide of Table 1, SEQ ID NO:33 (R1 CH3; Y-K-P-Y-D; R2 CHO)], the binding result was “binds”.

YKPVD (N-terminal R1 = CH3 (acetyl); K(Ac) at aa4; C-terminal Asp aldehyde (CHO)) [pentapeptide of Table 1, SEQ ID NO:19 (R1 CH3; Y-K(Ac)-P-V-D; R2 CHO)]: the binding result was “binds”.

On to YDPFD (N-terminal R1 = CH3 (acetyl); C-terminal Asp aldehyde (CHO)) [pentapeptide of Table 1, SEQ ID NO:28 (R1 CH3; Y-D-P-F-D; R2 CHO)], for which the binding entry is given as “binds”.

As for YCPVD (N-terminal R1 = CH3 (acetyl); C-terminal Asp aldehyde (CHO)) [pentapeptide of Table 1, SEQ ID NO:22 (R1 CH3; Y-C-P-V-D; R2 CHO)], the binding result is “binds”.

In the case of YDVVD (N-terminal R1 = CH3 (acetyl); C-terminal Asp aldehyde (CHO)) [pentapeptide of Table 1, SEQ ID NO:32 (R1 CH3; Y-D-V-V-D; R2 CHO)], the binding entry is given as “binds”.

On to YKPAD (N-terminal R1 = CH3 (acetyl); C-terminal Asp aldehyde (CHO)) [pentapeptide of Table 1, SEQ ID NO:29 (R1 CH3; Y-K-P-A-D; R2 CHO)], for which the binding entry was “binds”.

As to YKPFD (N-terminal R1 = CH3 (acetyl); C-terminal Asp aldehyde (CHO)) [pentapeptide of Table 1, SEQ ID NO:27 (R1 CH3; Y-K-P-F-D; R2 CHO)], the binding entry is given as “binds”.
